# Assay results reported in the supplement of paper PMC11659162.
# This is one part of the list. Single values of this set are uncertain.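 The cells are a human neuroglioma line carrying a green fluorescent autophagy reporter.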
# System: H4 GFP-LC3
# Assay: ACBP immunofluorescence intensity (scaled to control) (AU (scaled)); higher = more intracellular ACBP/DBI
# Conditions: 5 µM; 6 h
row,SMILES,ACBP immunofluorescence intensity
1,C=CCN1CCC2(C)c3cc(O)ccc3CC1C2C (racemic),0.788
2,Clc1ccc(N2CCN(Cc3c[nH]c4ncccc34)CC2)cc1,0.994
3,CCN1C[C@]2(COC)CC[C@H](OC)[C@]34C5C[C@@H]6[C@@H](OC)C[C@@]7(OCO[C@@]7(C13)[C@@H](O)C24)C5[C@H]6OC (some centres not stated),0.994
4,CN(C(=O)Cc1ccccc1)[C@H](CN1CCCC1)c1ccccc1,0.861
5,C[N+]1(C)CCOC(O)(c2ccc(-c3ccc(C4(O)C[N+](C)(C)CCO4)cc3)cc2)C1 (configuration not stated),1
6,Oc1ccc2c3c1O[C@H]1c4c(c5ccccc5n4Cc4ccccc4)C[C@@]4(O)[C@@H](C2)N(CC2CC2)CC[C@]314,0.794
7,O=C(O)/C=C/CO,0.963

# Same assay, conditions: 5 µM; 24 h
row,SMILES,ACBP immunofluorescence intensity
1,CC(=O)N1CC[N+](C)(C)CC1,0.781
2,COc1ccc(C(CN(C)C)C2(O)CCCCC2)cc1 (configuration not stated),0.754
3,COc1cccc(C2(O)CCCCC2CN(C)C)c1 (configuration not stated),0.639
4,COC(=O)[C@@H]1C[C@H](OC(C)=O)C(=O)[C@H]2[C@@]1(C)CC[C@H]1C(=O)O[C@H](c3ccoc3)C[C@]21C,0.656
5,C1CCc2nnnn2CC1,0.878
6,CCNC(=O)[C@H]1O[C@@H](n2cnc3c(N)ncnc32)[C@H](O)[C@@H]1O,0.807
7,CNCC(O)c1ccc(O)cc1 (configuration not stated),0.889
8,C=CCN1CC[C@]23CCCC[C@H]2[C@H]1Cc1ccc(O)cc13,0.686
9,CC(=O)OC1CN2CCC1CC2 (configuration not stated),0.482
10,COC(=O)/C=C/C(=O)N[C@@H]1CC[C@@]2(O)[C@H]3Cc4ccc(O)c5c4[C@@]2(CCN3CC2CC2)[C@H]1O5,0.579
11,Clc1cncc(N2CCNCC2)n1,0.941
12,N[C@@H](Cn1oc(=O)[nH]c1=O)C(=O)O,0.396
13,CC(C)c1cccc(C(C)C)c1O,0.462
14,CSCCC(NC(=O)C(Cc1ccccc1)NC(=O)CNC(=O)CNC(=O)C(N)Cc1ccc(O)cc1)C(=O)O (configuration not stated),0.631
15,Cc1nc(N)sc1CCN,0.508
16,CCCN1CCO[C@@H]2c3cc(O)ccc3OC[C@H]21,0.507
17,Fc1ccc(C(OCCN2CCN(CCCc3ccccc3)CC2)c2ccc(F)cc2)cc1,0.609
18,CN(C)Cc1c[nH]c2ccccc12,0.556

row,SMILES,ACBP immunofluorescence intensity
1,"C[N+]1(C)CCc2cc3c(cc2C1C1OC(=O)c2c1ccc1c2OCO1)OCO3 (single isomer, unassigned; (-))",0.472
2,c1ccc(CCCN2CCN(CCOC(c3ccccc3)c3ccccc3)CC2)cc1,0.543
3,Nc1ccc(CCN2CCN(c3cccc(C(F)(F)F)c3)CC2)cc1,0.539
4,Clc1cccc(SC2CCNCC2)n1,0.481
5,C[C@]12CC[C@@H](O)C[C@@H]1CC[C@@H]1[C@@H]2CC[C@]2(C)[C@@H](C(=O)CO)CC[C@@H]12,0.958
6,O=C(Cc1ccc(Cl)c(Cl)c1)N1CCCCC1CN1CCCC1 (configuration not stated),0.85
7,C[C@@H](NC(=O)[C@@H](N)Cc1ccc(O)cc1)C(=O)N[C@@H](Cc1ccccc1)C(=O)NCC(=O)N[C@@H](Cc1ccc(O)cc1)C(=O)N1CCC[C@H]1C(=O)N[C@@H](CO)C(N)=O,0.8
8,CCCC[N+]1(C)[C@@H]2CC(OC(=O)[C@H](CO)c3ccccc3)C[C@H]1[C@@H]1O[C@@H]12 (some centres not stated),0.56
9,CCN1C[C@]2(C)CC[C@H](O)[C@]34C1[C@@H](C[C@H]23)[C@@]1(O)C[C@H](OC)[C@H]2C[C@@H]4[C@@H]1[C@H]2O,0.606
10,CN1CCC(c2c[nH]c3ccc(O)cc23)CC1,0.813
11,C=CCN1CCC2(C)c3cc(O)ccc3CC1C2C (racemic),0.806
12,Clc1ccc(N2CCN(Cc3c[nH]c4ncccc34)CC2)cc1,0.854
13,CCN1C[C@]2(COC)CC[C@H](OC)[C@]34C5C[C@@H]6[C@@H](OC)C[C@@]7(OCO[C@@]7(C13)[C@@H](O)C24)C5[C@H]6OC (some centres not stated),0.414
14,CN(C(=O)Cc1ccccc1)[C@H](CN1CCCC1)c1ccccc1,0.891
15,C[N+]1(C)CCOC(O)(c2ccc(-c3ccc(C4(O)C[N+](C)(C)CCO4)cc3)cc2)C1 (configuration not stated),0.925
16,Oc1ccc2c3c1O[C@H]1c4c(c5ccccc5n4Cc4ccccc4)C[C@@]4(O)[C@@H](C2)N(CC2CC2)CC[C@]314,0.928
17,O=C(O)/C=C/CO,0.828
